Assay results: the supplement of paper PMC10663445
Structures can show the parent of a compound that is named as a salt. Some of the results follow. Many values rest on one well or one pass, so single values are uncertain.

tested on: hsa-miR-132-3p; assay: miR-132-3p level in NGN2-iNs after compound treatment (TMM-normalised, ComBat batch-corrected) (batch-corrected normalised expression (arbitrary units)); higher = higher miR-132-3p expression; conditions: 10 µM; 24 h; human iPSC-derived NGN2 neurons (BR43)

SMILES	miR-132-3p level in NGN2-iNs
CC(C)Oc1ccc(-c2cnc3c(-c4ccnc5ccccc45)cnn3c2)cc1	-0.407
NCCCCCC(=O)O [(6-)ε-Aminocaproic acid]	0.542
CC(C)CCNC(=O)[C@H](CC(C)C)NC(=O)[C@H]1O[C@@H]1C(=O)O [Loxistatin Acid (E-64C)]	0.0243
COc1c(C)cnc(Cn2cnc3c(Cl)nc(N)nc32)c1C	-0.738
COc1ccc2c(Oc3ccc(NC(=O)c4c(C)n(CC(C)(C)O)n(-c5ccccc5)c4=O)nc3)ccnc2c1	0.775
Nc1nccc(Oc2ccc(NC(=O)c3c[nH]cc(-c4ccc(F)cc4)c3=O)cc2F)c1Cl	-0.0246
Cc1nc2c(-c3cnc(N)nc3)nc(N3CCOCC3)nc2n1C(C)C	0.29
NC(=O)Nc1cc(-c2cccc(F)c2)sc1C(=O)N[C@H]1CCCNC1	-2.85
O=C(c1ccc(F)cc1)C1CCN(CCn2c(=O)[nH]c3ccccc3c2=O)CC1 [Ketanserin]	-0.801
CC(C)c1ccccc1Cc1cc(C(=O)Nc2ccc(S(=O)(=O)c3ccccc3C(C)(C)C)cc2)c(O)c(O)c1O	0.768
O=C(O)CCc1ccc(NCc2cccc(Oc3ccccc3)c2)cc1	-0.528
O=C1NCC2(CCN(CCc3ccccc3)CC2)O1 [Fenspiride HCl]	-0.567
Clc1ccc2c(c1)CCc1cccnc1C2=C1CCNCC1 [Desloratadine]	1.78
CCS(=O)(=O)N1CC(CC#N)(n2cc(-c3ncnc4[nH]ccc34)cn2)C1	-1.65
COc1cc2c(cc1OC)[C@@H]1Cc3ccc(OC)c(OC)c3CN1CC2 [Rotundine]	-0.871
Cc1ccc(C)c(OCCCC(C)(C)C(=O)O)c1 [Gemfibrozil]	-1.06
O=C(O)C[C@H](O)C[C@H](O)/C=C/c1c(C2CC2)nc2ccccc2c1-c1ccc(F)cc1 [Pitavastatin Calcium]	-1.96
C[C@H](NC(=O)CCc1nc2ccccc2c(=O)[nH]1)c1ccccc1	-0.454
NCC(=O)CCC(=O)O [5-Aminolevulinic acid HCl]	1.29
COc1c(C)c2c(c(O)c1C/C=C(\C)CCC(=O)OCCN1CCOCC1)C(=O)OC2 [Mycophenolate Mofetil]	0.394
CN1C(C(=O)Nc2ccccn2)=C(O)c2ccccc2S1(=O)=O [Piroxicam]	-0.408
NCCS [Cysteamine HCl]	0.649
O=C(O)c1ccc(-n2nc(-c3ccccc3O)nc2-c2ccccc2O)cc1 [Deferasirox]	0.343
C[C@H]1COC2(CCN(c3nc(=O)c4cc(C(F)(F)F)cc([N+](=O)[O-])c4s3)CC2)O1 (racemic) [BTZ043 Racemate]	0.506
Cc1cnc(-c2cnc(NCCNc3ccc(C#N)cn3)nc2-c2ccc(Cl)cc2Cl)[nH]1	-0.112
CCCNC(C)C(=O)Nc1c(C)csc1C(=O)OC (stereo not given) [Articaine HCl]	-0.36
CC(=O)C1=C(O)C=C2Oc3c(C(C)=O)c(O)c(C)c(O)c3C2(C)C1=O (single isomer, unassigned; (+)) [(+)-Usniacin]	0.435

Given bar-delimited: part of the list above
SMILES | miR-132-3p level in NGN2-iNs
CC(C)Oc1ccc(-c2cnc3c(-c4ccnc5ccccc45)cnn3c2)cc1 | -0.407
NCCCCCC(=O)O [(6-)ε-Aminocaproic acid] | 0.542
CC(C)CCNC(=O)[C@H](CC(C)C)NC(=O)[C@H]1O[C@@H]1C(=O)O [Loxistatin Acid (E-64C)] | 0.0243
COc1c(C)cnc(Cn2cnc3c(Cl)nc(N)nc32)c1C | -0.738
COc1ccc2c(Oc3ccc(NC(=O)c4c(C)n(CC(C)(C)O)n(-c5ccccc5)c4=O)nc3)ccnc2c1 | 0.775
Nc1nccc(Oc2ccc(NC(=O)c3c[nH]cc(-c4ccc(F)cc4)c3=O)cc2F)c1Cl | -0.0246
Cc1nc2c(-c3cnc(N)nc3)nc(N3CCOCC3)nc2n1C(C)C | 0.29
NC(=O)Nc1cc(-c2cccc(F)c2)sc1C(=O)N[C@H]1CCCNC1 | -2.85
O=C(c1ccc(F)cc1)C1CCN(CCn2c(=O)[nH]c3ccccc3c2=O)CC1 [Ketanserin] | -0.801
CC(C)c1ccccc1Cc1cc(C(=O)Nc2ccc(S(=O)(=O)c3ccccc3C(C)(C)C)cc2)c(O)c(O)c1O | 0.768
O=C(O)CCc1ccc(NCc2cccc(Oc3ccccc3)c2)cc1 | -0.528
O=C1NCC2(CCN(CCc3ccccc3)CC2)O1 [Fenspiride HCl] | -0.567
Clc1ccc2c(c1)CCc1cccnc1C2=C1CCNCC1 [Desloratadine] | 1.78
CCS(=O)(=O)N1CC(CC#N)(n2cc(-c3ncnc4[nH]ccc34)cn2)C1 | -1.65
COc1cc2c(cc1OC)[C@@H]1Cc3ccc(OC)c(OC)c3CN1CC2 [Rotundine] | -0.871
Cc1ccc(C)c(OCCCC(C)(C)C(=O)O)c1 [Gemfibrozil] | -1.06
O=C(O)C[C@H](O)C[C@H](O)/C=C/c1c(C2CC2)nc2ccccc2c1-c1ccc(F)cc1 [Pitavastatin Calcium] | -1.96
C[C@H](NC(=O)CCc1nc2ccccc2c(=O)[nH]1)c1ccccc1 | -0.454
NCC(=O)CCC(=O)O [5-Aminolevulinic acid HCl] | 1.29
COc1c(C)c2c(c(O)c1C/C=C(\C)CCC(=O)OCCN1CCOCC1)C(=O)OC2 [Mycophenolate Mofetil] | 0.394
NCCS [Cysteamine HCl] | 0.649
O=C(O)c1ccc(-n2nc(-c3ccccc3O)nc2-c2ccccc2O)cc1 [Deferasirox] | 0.343
C[C@H]1COC2(CCN(c3nc(=O)c4cc(C(F)(F)F)cc([N+](=O)[O-])c4s3)CC2)O1 (racemic) [BTZ043 Racemate] | 0.506
Cc1cnc(-c2cnc(NCCNc3ccc(C#N)cn3)nc2-c2ccc(Cl)cc2Cl)[nH]1 | -0.112
CC(=O)C1=C(O)C=C2Oc3c(C(C)=O)c(O)c(C)c(O)c3C2(C)C1=O (single isomer, unassigned; (+)) [(+)-Usniacin] | 0.435

Later entries.

SMILES	miR-132-3p level in NGN2-iNs
O=C(O)c1cc2cccc([N+](=O)[O-])c2[nH]1	1.77
COc1ccc(CCc2nc3cc(-c4c(C)noc4C)ccc3n2C[C@H](C)N2CCOCC2)cc1Cl	0.133
CC(C[N+](C)(C)C)OC(N)=O (stereo not given) [Bethanechol chloride]	0.873
COc1ccc(C[C@H](NC(=O)[C@H](C)NC(=O)CN2CCOCC2)C(=O)N[C@@H](Cc2ccccc2)C(=O)[C@@]2(C)CO2)cc1	1.12
Cc1ccc2nc(NCCN)c3ncc(C)n3c2c1	-0.598
CC(=O)c1cc([N+](=O)[O-])c(Sc2ccc(F)cc2F)s1	0.731
COc1ccc([C@@H]2Sc3ccccc3N(CCN(C)C)C(=O)[C@@H]2OC(C)=O)cc1 [Diltiazem HCl]	0.185
COc1cc(NS(=O)(=O)c2ccc(N)cc2)nc(OC)n1 [Sulphadimethoxine]	-0.32
O=C1N=C(O)NC1(c1ccccc1)c1ccccc1 [Phenytoin Sodium]	0.124
Cc1ccc(Cl)cc1N(CC(=O)Nc1c(F)cccc1F)S(C)(=O)=O	-0.172
Oc1nc(-c2ccc(C(F)(F)F)cc2)nc2c1CSCC2	0.471
NC1=NCC2c3ccccc3Cc3ccccc3N12 (stereo not given) [Epinastine HCl]	1.44
CC(C)n1cnc2c(NCCc3ccc(O)cc3)nc(-c3csc4ccccc34)nc21 [StemRegenin 1 (SR1)]	0.811
O=C(NNc1ccccc1)c1ccncc1	-0.455
Cc1cc(C#N)cc(C)c1Oc1nc(Nc2ccc(C#N)cc2)nc(N)c1Br [Etravirine (TMC125)]	-0.39
O=c1[nH]c(=O)n([C@H]2C[C@H](O)[C@@H](CO)O2)cc1C(F)(F)F [Trifluridine]	0.235
Cc1cc(F)c(Nc2ncnc3cc(OCc4ccccc4)ccc23)cc1O	0.817
NS(=O)(=O)c1ccc(NC(=O)Nc2ccc(F)cc2)cc1	2.62
S=c1[nH]cnc2nc[nH]c12 [Mercaptopurine (6-MP)]	-0.877
O=C(NCCCNc1nc(Nc2cccc(NC(=O)N3CCCC3)c2)ncc1I)c1cccs1	-0.9
Cc1cccc(-c2[nH]ncc2-c2ccc3ncccc3n2)n1	-0.188
Nc1nc(=O)[nH]cc1F [Flucytosine]	-0.0656
Oc1cc(O)cc(/C=C/c2ccc(O)c(O)c2)c1 [Piceatannol]	-0.585
Brc1ccc(C2CN3CCSC3=N2)cc1 (single isomer, unassigned; (-)) [(-)-p-Bromotetramisole Oxalate]	-0.415
CC[C@@]1(O)C(=O)OCc2c1cc1n(c2=O)Cc2cc3c(CN(C)C)c(O)ccc3nc2-1 [Topotecan HCl]	0.141
CN(C)C(=O)c1cc2cnc(Nc3ccc(N4CCNCC4)cn3)nc2n1C1CCCC1 [Ribociclib (LEE011)]	0.167
CC(=O)O[C@]1(C(C)=O)CC[C@H]2[C@@H]3C=C(C)C4=CC(=O)CC[C@]4(C)[C@H]3CC[C@@]21C [Megestrol Acetate]	0.0684

SMILES	miR-132-3p level in NGN2-iNs
C=C1[C@H](CO)[C@@H](O)C[C@@H]1n1cnc2c(=O)[nH]c(N)nc21 [Entecavir Hydrate]	2.4
CCCC(=O)Nc1cccc(NC(=O)c2ccccc2Br)c1 [ML161 (Parmodulin 2)]	-0.0616
CO[C@H]1C[C@@H]2CC[C@@H](C)[C@@](O)(O2)C(=O)C(=O)N2CCCC[C@H]2C(=O)O[C@H]([C@H](C)C[C@@H]2CC[C@H](n3cnnn3)[C@H](OC)C2)CC(=O)[C@H](C)/C=C(\C)[C@@H](O)[C@@H](OC)C(=O)[C@H](C)C[C@H](C)/C=C/C=C/C=C/1C [Zotarolimus(ABT-578)]	-1.02
COc1cc2ncnc(Nc3ccc(O)c(Br)c3)c2cc1OC	0.39
O=C(O)c1ccc(O)c2ncccc12	1.21
Nc1ccccc1NC(=O)c1ccc(CNc2nccc(-c3cccnc3)n2)cc1 [Mocetinostat (MGCD0103)]	0.293
CC[C@H](C)C(=O)O[C@H]1C[C@H](O)C=C2C=C[C@H](C)[C@H](CC[C@@H](O)C[C@@H](O)CC(=O)O)[C@H]21 [Pravastatin sodium]	1.86
CC1=C(C(=O)O)N2C(=O)[C@@H](NC(=O)[C@H](N)c3ccccc3)[C@H]2SC1 [Cephalexin]	-0.848
COc1ccc2c(c1)c(CC(=O)OCC(=O)O)c(C)n2C(=O)c1ccc(Cl)cc1 [Acemetacin]	1.38
Cc1nccn1CC1CCc2c(c3ccccc3n2C)C1=O (stereo not given) [Ondansetron HCl]	0.32
CC(=O)NC[C@H]1CN(c2ccc(N3CCOCC3)c(F)c2)C(=O)O1 [Linezolid]	-0.0165
COc1cc2c(cc1Cc1cccc(Cl)c1F)c(=O)c(C(=O)O)cn2[C@H](CO)C(C)C [Elvitegravir (GS-9137, JTK-303)]	-1.07
COc1ccc2cc3[n+](cc2c1OC)CCc1cc2c(cc1-3)OCO2 [Berberine chloride]	-1.3
CCCCC1C(=O)N(c2ccccc2)N(c2ccccc2)C1=O [Phenylbutazone]	-0.145
CN(C)c1cc(NC(=O)CNC(C)(C)C)c(O)c2c1CC1CC3C(N(C)C)C(=O)C(C(N)=O)=C(O)C3(O)C(=O)C1=C2O (stereo not given) [Tigecycline]	0.219
CC(=O)/N=c1/sc(S(N)(=O)=O)nn1C [Methazolamide]	0.00627
[Cl][Pt+2][Cl].[NH2-].[NH2-]	-0.223
CCCc1nc2c(C)cc(-c3nc4ccccc4n3C)cc2n1Cc1ccc(-c2ccccc2C(=O)O)cc1 [Telmisartan]	-0.0899
COCCCOc1cc(C[C@@H](C[C@H](N)[C@@H](O)C[C@H](C(=O)NCC(C)(C)C(N)=O)C(C)C)C(C)C)ccc1OC [Aliskiren Hemifumarate]	0.309
CCC(CC)(NC(=O)C(C)C)C(=O)N[C@@H](CCCN=C(N)N)C(=O)NC1(C(=O)NC(c2ccc(F)cc2)c2ccc(F)cc2)CCCC1	-0.51
O=C(O)Cc1cc(I)c(Oc2ccc(O)c(I)c2)c(I)c1 [Tiratricol]	0.258
NS(=O)(=O)C#Cc1ccccc1 [Pifithrin-μ]	-0.514
Cc1ccc(C(=O)C(C)CN2CCCCC2)cc1 (stereo not given) [Tolperisone HCl]	-0.231
C[C@@H]1O[C@@H](O[C@H]2[C@H](Oc3cc(O)c4c(c3)O[C@H](c3ccc(O)cc3)CC4=O)O[C@H](CO)[C@@H](O)[C@@H]2O)[C@H](O)[C@H](O)[C@H]1O [Naringin]	-0.135
N[C@@H](CC(=O)N1CCn2c(nnc2C(F)(F)F)C1)Cc1cc(F)c(F)cc1F [Sitagliptin phosphate monohydrate]	-0.729
Cn1cc(/C=C/C(=O)c2cccc(F)c2)cc1/C=C/C(=O)NO	-0.115
